Some of the results follow. The data scatter; read single values as rough.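 Many melting curves are irregular; where none melted, Tm was taken as 64 °C.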
Compound: CCc1cnccc1C(=O)Nc1cc2c(cc1F)NC(=O)CC2
Assay: melting temperature shift (DMSO Tm minus MBE1-treated Tm) in cellular thermal proteome profiling; higher = less thermal stabilization by MBE1 (negative = stabilized by MBE1)
Settings: A375

Amino acid sequences for entries named in this document (tags omitted). A change or cut given only in a name is not applied to a line headed by its entry.
UniProt Q99797: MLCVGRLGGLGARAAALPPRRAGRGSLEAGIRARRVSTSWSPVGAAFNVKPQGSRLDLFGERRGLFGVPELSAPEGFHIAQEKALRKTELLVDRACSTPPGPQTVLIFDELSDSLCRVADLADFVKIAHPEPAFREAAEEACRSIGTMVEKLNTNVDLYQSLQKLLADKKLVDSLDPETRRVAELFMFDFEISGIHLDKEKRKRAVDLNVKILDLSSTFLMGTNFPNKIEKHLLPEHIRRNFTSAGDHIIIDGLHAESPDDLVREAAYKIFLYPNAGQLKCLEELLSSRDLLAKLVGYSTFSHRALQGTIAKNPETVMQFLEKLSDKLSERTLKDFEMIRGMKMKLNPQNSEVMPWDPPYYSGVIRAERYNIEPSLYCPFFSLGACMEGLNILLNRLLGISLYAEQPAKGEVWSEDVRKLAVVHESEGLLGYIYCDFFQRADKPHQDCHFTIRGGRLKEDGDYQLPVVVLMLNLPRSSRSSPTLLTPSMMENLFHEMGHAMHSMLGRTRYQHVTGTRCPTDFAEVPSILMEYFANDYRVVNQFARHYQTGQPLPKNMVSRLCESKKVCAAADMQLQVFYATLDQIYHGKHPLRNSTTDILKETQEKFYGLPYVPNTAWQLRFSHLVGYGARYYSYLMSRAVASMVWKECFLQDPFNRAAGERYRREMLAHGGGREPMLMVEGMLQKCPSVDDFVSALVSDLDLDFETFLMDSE
UniProt Q9BUV8: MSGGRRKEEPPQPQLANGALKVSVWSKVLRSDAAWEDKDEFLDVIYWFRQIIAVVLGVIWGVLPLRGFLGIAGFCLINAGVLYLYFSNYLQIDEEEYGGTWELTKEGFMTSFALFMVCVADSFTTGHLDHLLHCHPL
UniProt Q9BWQ6: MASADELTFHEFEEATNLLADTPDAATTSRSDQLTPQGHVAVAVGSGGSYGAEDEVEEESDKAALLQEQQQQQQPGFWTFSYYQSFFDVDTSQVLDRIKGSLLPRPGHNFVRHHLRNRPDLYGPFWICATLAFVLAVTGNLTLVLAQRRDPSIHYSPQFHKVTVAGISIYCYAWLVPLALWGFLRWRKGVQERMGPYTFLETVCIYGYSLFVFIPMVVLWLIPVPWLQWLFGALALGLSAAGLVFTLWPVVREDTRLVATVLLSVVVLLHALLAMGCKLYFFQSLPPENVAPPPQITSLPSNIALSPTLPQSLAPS
UniProt Q9BV57: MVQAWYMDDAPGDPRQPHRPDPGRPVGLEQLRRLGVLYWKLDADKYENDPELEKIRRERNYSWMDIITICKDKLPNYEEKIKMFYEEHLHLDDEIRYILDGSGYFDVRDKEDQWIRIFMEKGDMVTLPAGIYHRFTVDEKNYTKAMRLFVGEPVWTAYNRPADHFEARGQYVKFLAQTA
UniProt Q9BQE9, whole entry: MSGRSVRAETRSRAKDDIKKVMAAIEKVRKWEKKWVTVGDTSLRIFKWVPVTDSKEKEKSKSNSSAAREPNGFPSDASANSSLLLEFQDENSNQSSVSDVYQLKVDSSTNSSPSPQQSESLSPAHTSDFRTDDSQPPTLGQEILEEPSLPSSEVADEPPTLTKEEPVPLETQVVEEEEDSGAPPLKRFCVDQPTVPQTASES
UniProt Q9BTC0, whole entry: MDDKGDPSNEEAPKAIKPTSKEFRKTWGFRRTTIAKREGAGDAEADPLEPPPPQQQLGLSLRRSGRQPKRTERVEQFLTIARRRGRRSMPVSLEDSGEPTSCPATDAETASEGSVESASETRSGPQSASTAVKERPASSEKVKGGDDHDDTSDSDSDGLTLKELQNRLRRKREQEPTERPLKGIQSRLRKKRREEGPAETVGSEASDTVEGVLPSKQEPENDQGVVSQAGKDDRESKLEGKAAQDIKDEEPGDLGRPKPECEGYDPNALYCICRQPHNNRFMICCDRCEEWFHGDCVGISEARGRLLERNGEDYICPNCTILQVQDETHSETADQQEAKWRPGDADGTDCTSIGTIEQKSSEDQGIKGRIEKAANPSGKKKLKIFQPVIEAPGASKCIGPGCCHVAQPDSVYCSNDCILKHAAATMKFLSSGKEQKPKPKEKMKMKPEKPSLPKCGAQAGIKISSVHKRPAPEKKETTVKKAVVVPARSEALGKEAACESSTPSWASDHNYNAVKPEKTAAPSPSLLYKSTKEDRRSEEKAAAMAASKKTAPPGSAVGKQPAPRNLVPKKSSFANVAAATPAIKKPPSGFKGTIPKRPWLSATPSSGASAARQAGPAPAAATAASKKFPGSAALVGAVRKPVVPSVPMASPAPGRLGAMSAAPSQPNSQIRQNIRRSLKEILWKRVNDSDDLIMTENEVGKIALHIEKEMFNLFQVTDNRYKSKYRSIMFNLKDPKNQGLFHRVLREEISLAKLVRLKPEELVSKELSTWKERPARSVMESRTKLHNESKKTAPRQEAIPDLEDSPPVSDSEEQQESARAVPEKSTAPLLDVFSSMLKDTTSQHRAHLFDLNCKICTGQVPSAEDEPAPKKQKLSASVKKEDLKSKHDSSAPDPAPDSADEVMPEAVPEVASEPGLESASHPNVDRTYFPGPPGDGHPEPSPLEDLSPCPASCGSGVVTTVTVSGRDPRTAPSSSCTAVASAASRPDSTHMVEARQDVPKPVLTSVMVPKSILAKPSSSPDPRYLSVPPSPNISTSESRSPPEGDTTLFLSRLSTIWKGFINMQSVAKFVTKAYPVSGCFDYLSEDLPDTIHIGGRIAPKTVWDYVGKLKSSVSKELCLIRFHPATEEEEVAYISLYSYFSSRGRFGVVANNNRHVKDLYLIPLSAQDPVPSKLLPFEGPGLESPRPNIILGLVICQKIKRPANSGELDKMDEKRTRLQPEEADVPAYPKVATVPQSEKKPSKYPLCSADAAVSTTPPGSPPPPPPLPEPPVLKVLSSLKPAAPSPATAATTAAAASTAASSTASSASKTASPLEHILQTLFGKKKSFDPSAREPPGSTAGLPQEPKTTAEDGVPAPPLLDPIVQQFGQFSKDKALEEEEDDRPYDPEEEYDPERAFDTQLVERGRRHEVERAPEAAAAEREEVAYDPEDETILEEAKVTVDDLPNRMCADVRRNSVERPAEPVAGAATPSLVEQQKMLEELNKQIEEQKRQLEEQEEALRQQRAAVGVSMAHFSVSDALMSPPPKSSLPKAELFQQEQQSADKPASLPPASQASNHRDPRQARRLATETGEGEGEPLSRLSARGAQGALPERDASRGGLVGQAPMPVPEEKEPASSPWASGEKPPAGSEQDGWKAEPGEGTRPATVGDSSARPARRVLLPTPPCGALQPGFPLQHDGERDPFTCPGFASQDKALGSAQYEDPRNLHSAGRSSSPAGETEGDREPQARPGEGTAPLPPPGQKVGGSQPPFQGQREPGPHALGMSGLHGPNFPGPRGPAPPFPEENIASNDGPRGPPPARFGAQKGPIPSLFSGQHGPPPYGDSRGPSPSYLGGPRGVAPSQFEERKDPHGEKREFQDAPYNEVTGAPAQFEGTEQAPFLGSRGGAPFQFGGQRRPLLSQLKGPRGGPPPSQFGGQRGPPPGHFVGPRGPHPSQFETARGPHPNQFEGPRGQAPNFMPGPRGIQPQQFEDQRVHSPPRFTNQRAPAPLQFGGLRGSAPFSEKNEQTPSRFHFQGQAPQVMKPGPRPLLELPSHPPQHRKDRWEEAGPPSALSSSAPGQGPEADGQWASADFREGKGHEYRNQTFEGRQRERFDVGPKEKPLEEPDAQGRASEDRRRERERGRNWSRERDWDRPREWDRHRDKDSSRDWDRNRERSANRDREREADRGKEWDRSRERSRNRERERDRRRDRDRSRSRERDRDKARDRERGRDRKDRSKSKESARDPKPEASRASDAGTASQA
UniProt Q99614: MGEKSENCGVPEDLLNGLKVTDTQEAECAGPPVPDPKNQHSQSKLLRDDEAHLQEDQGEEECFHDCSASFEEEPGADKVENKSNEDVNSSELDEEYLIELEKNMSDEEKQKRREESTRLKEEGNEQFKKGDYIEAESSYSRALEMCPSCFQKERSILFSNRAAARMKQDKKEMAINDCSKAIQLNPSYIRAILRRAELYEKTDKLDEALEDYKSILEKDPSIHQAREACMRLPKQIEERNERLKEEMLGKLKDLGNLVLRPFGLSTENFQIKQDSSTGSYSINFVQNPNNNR
UniProt Q9BT25: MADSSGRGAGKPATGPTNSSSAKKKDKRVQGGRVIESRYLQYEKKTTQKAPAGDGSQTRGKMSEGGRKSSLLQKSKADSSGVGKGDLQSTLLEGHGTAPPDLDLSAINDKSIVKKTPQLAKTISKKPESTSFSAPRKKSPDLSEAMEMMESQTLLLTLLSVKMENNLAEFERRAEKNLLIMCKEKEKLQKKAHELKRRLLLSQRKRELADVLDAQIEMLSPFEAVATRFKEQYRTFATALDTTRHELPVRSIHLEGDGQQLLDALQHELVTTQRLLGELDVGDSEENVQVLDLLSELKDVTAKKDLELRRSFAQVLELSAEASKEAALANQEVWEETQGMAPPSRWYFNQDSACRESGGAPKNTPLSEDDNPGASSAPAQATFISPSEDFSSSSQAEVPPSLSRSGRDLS
UniProt Q99766: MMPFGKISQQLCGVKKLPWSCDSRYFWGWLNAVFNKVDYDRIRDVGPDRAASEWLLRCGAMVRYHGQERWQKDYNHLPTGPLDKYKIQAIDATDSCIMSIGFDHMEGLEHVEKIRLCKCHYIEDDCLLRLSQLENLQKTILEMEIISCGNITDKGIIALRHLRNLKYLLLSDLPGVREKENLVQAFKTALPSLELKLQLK
UniProt Q9BQT8: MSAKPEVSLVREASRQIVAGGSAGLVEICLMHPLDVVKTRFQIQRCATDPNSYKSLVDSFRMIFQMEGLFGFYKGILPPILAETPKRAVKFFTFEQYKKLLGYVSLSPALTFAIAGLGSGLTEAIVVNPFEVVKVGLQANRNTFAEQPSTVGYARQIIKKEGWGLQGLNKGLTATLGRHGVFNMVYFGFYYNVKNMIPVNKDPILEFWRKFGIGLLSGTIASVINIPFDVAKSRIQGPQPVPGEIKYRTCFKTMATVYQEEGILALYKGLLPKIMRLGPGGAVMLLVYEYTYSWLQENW
UniProt Q9BQP7: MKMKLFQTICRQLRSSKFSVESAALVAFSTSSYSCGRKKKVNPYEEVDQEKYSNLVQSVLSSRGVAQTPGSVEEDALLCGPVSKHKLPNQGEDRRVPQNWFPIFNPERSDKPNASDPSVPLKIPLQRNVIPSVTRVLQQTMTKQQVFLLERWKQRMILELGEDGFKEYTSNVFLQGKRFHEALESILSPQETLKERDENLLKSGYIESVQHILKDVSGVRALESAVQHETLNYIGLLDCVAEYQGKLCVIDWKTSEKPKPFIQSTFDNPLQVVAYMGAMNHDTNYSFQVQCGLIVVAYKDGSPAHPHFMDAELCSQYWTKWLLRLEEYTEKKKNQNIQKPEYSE
UniProt Q9BW19: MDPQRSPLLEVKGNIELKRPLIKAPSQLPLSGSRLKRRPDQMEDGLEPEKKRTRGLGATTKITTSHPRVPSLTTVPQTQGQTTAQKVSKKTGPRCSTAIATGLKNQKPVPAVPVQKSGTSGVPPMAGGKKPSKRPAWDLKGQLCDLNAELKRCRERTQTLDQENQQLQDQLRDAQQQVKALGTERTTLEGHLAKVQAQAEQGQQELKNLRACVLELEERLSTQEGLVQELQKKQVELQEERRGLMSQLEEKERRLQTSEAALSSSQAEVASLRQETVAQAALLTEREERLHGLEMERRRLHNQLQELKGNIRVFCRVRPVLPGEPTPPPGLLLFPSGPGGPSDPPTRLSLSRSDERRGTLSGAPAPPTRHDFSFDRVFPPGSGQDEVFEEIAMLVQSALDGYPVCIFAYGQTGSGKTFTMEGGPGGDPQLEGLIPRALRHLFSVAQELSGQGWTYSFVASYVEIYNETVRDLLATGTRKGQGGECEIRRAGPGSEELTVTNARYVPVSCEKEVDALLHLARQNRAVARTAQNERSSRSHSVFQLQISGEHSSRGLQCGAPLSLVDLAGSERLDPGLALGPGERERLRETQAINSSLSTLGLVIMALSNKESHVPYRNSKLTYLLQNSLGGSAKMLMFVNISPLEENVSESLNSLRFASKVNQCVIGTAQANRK
UniProt Q99832: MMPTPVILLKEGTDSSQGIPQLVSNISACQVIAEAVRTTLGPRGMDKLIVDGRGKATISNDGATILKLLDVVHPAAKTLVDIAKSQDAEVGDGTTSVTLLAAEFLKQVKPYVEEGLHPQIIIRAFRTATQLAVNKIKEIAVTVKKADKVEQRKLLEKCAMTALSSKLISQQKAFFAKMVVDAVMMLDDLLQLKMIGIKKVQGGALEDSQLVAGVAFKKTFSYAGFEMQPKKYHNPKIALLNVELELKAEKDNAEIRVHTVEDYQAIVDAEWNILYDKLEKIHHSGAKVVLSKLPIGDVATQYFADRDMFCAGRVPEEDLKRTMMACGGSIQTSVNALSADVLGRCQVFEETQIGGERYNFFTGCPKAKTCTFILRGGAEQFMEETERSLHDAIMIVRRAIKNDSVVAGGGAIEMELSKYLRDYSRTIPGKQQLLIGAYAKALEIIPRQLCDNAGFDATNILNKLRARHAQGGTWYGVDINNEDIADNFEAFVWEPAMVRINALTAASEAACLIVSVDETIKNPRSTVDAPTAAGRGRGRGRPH

Row | Target | melting temperature shift (MBE1 concentration: 100 nM) [°C] | melting temperature shift (MBE1 concentration: 1 uM) [°C]
1 | UniProt Q9BQ87 | -4.73 | -5.19
2 | TTPAL (UniProt Q9BTX7) | -0.476 | 0.25
3 | GTPBP2 (UniProt Q9BX10) | -2.1 | -0.427
4 | HNRNPAB (UniProt Q99729) | -2.3 | 0.111
5 | EDEM2 (UniProt Q9BV94) | -0.503 | -2.68
6 | MIPEP (UniProt Q99797) | 0.348 | 0.055
7 | KATNB1 (UniProt Q9BVA0) | 0.421 | 0.263
8 | C20ORF24 (UniProt Q9BUV8) | -0.189 | 1.91
9 | UniProt Q9BWQ6 | -0.0886 | 2.68
10 | ADI1 (UniProt Q9BV57) | 0.916 | 1.24
11 | BCL7B (UniProt Q9BQE9) | -0.224 | -2.92
12 | SELO (UniProt Q9BVL4) | 2.24 | 0.947
13 | THUMPD2 (UniProt Q9BTF0) | -0.311 | 1.62
14 | TUBA1C (UniProt Q9BQE3) | 0.751 | 0.905
15 | UniProt Q99576 | -1.91 | -0.445
16 | DPH2 (UniProt Q9BQC3) | -0.798 | 0.574
17 | DIDO1 (UniProt Q9BTC0) | -0.871 | -0.499
18 | TTC1 (UniProt Q99614) | -3.65 | -3.35
19 | MLST8 (UniProt Q9BVC4) | 0.0805 | 0.539
20 | UniProt Q99973 | -0.599 | 0.824

Row | Target | melting temperature shift (MBE1 concentration: 100 nM) [°C] | melting temperature shift (MBE1 concentration: 1 uM) [°C]
21 | UniProt Q9BRS8 | -0.922 | 0.965
22 | HAUS8 (UniProt Q9BT25) | -1.44 | -0.339
23 | UniProt Q99766 | 0.708 | 0.391
24 | NTPCR (UniProt Q9BSD7) | -0.738 | 0.226
25 | UniProt Q9BTT6 | 1.74 | 1.08
26 | UniProt Q99717 | -0.606 | -0.459
27 | UniProt Q99865 | 0.362 | -0.128
28 | UniProt Q9BX66 | -0.832 | 0.183
29 | COPS8 (UniProt Q99627) | -0.879 | -0.0134
30 | PKMYT1 (UniProt Q99640) | 0.207 | 1.89
31 | UniProt Q9BQT8 | -3.98 | -4.16
32 | RBM42 (UniProt Q9BTD8) | -0.891 | -0.985
33 | UniProt Q9BUP0 | -1.13 | -0.986
34 | UniProt Q9BVG4 | 0.0977 | -0.604
35 | UniProt Q9BW30 | -5.72 | -1.55
36 | C9ORF142 (UniProt Q9BUH6) | -2.3 | -1.87
37 | PRMT1 (UniProt Q99873) | -0.449 | 0.503
38 | MGME1 (UniProt Q9BQP7) | -1.15 | 0.0872
39 | SCAF11 (UniProt Q99590) | -7.21 | 0.134
40 | GNL3 (UniProt Q9BVP2) | -0.0641 | -0.122

Row | Target | melting temperature shift (MBE1 concentration: 100 nM) [°C] | melting temperature shift (MBE1 concentration: 1 uM) [°C]
41 | TMEM43 (UniProt Q9BTV4) | -0.724 | 0.557
42 | MSTO1 (UniProt Q9BUK6) | 0.482 | 0.586
43 | FUCA2 (UniProt Q9BTY2) | -1.82 | -2.98
44 | AKAP9 (UniProt Q99996) | -0.0894 | -0.226
45 | MCMBP (UniProt Q9BTE3) | -0.753 | -0.382
46 | KIFC1 (UniProt Q9BW19) | -0.666 | -0.602
47 | UniProt Q9BRD0 | -2.09 | 0.0855
48 | TACO1 (UniProt Q9BSH4) | -0.715 | 0.194
49 | TUBGCP2 (UniProt Q9BSJ2) | 0.684 | 0.421
50 | LSM14B (UniProt Q9BX40) | 0.325 | -0.333
51 | AP1M1 (UniProt Q9BXS5) | 0.965 | -0.055
52 | ADPGK (UniProt Q9BRR6) | -1.39 | 0.513
53 | CPNE1 (UniProt Q99829) | -0.596 | -0.256
54 | GNB1L (UniProt Q9BYB4) | -1.7 | 0.898
55 | MICU1 (UniProt Q9BPX6) | -0.847 | 0.983
56 | RPAP1 (UniProt Q9BWH6) | 1.42 | 0.647
57 | CCT7 (UniProt Q99832) | -0.785 | 0.61
58 | CEP250 (UniProt Q9BV73) | 2.93 | 2.07
59 | OSBPL1A (UniProt Q9BXW6) | 0.647 | -0.537
60 | TIPIN (UniProt Q9BVW5) | 0.568 | 0.656

Exported tab-delimited: part of the list above
Row	Target	melting temperature shift (MBE1 concentration: 100 nM) [°C]	melting temperature shift (MBE1 concentration: 1 uM) [°C]
41	TMEM43 (UniProt Q9BTV4)	-0.724	0.557
42	MSTO1 (UniProt Q9BUK6)	0.482	0.586
43	FUCA2 (UniProt Q9BTY2)	-1.82	-2.98
44	AKAP9 (UniProt Q99996)	-0.0894	-0.226
45	MCMBP (UniProt Q9BTE3)	-0.753	-0.382
46	KIFC1 (UniProt Q9BW19)	-0.666	-0.602
47	UniProt Q9BRD0	-2.09	0.0855
48	TACO1 (UniProt Q9BSH4)	-0.715	0.194
49	TUBGCP2 (UniProt Q9BSJ2)	0.684	0.421
50	LSM14B (UniProt Q9BX40)	0.325	-0.333
51	AP1M1 (UniProt Q9BXS5)	0.965	-0.055
52	ADPGK (UniProt Q9BRR6)	-1.39	0.513
53	CPNE1 (UniProt Q99829)	-0.596	-0.256
54	GNB1L (UniProt Q9BYB4)	-1.7	0.898
55	MICU1 (UniProt Q9BPX6)	-0.847	0.983
56	RPAP1 (UniProt Q9BWH6)	1.42	0.647

Reference: the supplement of paper PMC12595434, “Development of retinoid nuclear receptor pathway antagonists through targeting aldehyde dehydrogenase 1A3” (iScience, 2025)
